# Structures can show the parent of a compound that is named as a salt. Some of the results follow. Single values are uncertain here, since repeats match poorly.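 Human embryonic kidney cells were transiently transfected with a plasmid bearing a Renilla luciferase gene under the HSV-TK promoter. This first-round screen tests roughly ten thousand compounds for ones that increase reporter output.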
# Tested on: HEK 293FT
# Test: log relative Renilla luciferase luminescence (reporter expression vs reference, reference not stated) (log (base not stated)); higher = higher recombinant reporter expression
# Settings: 10 µM; time after transfection 48 h
row,SMILES,log
1,CC(C)[N+](C)(CCC(C(N)=O)(c1ccccc1)c1ccccc1)C(C)C [Isopropamide iodide],0.0406
2,C#C[C@]1(O)CC[C@H]2[C@@H]3CCC4=CC(=O)CC[C@]4(C)[C@H]3CC[C@@]21C [Ethisterone],-0.0785
3,O=c1[nH]c2ccccc2n1CCCN1CCC(n2c(=O)[nH]c3cc(Cl)ccc32)CC1 [Domperidone],0.0996
4,O=C([O-])c1ccccc1-c1c2cc(Br)c(=O)cc-2oc2[c]([Hg+])c([O-])c(Br)cc12.[Na+].[Na+].[OH-] [Merbromin],-0.0569
5,CC(C)CC(N(C)C)C1(c2ccc(Cl)cc2)CCC1 (stereo unspecified) [Sibutramine HCl],0.0619
6,S=C(NC1CCCCC1)N1CCC(c2cnc[nH]2)CC1 [Thioperamide maleate],-0.00598
7,COc1ccc2c(c1)[C@]13CCCC[C@@H]1[C@H](C2)N(C)CC3 [Dextromethorphan hydrobromide monohydrate],0.0437
8,C=C1[C@@H]2CC[C@H]3[C@]4(C)C[C@H](O[C@@H]5O[C@H](CO)[C@@H](OS(=O)(=O)O)[C@H](OS(=O)(=O)O)[C@H]5OC(=O)CC(C)C)C[C@@H](C(=O)O)[C@H]4CC[C@]3(C2)[C@@H]1O [Atractyloside potassium salt],-0.264
9,CC(Cc1ccc(O)cc1)NCC(O)c1cc(O)cc(O)c1 (stereo unspecified) [Fenoterol hydrobromide],-0.372
10,C1CCc2nnnn2CC1 [Pentylenetetrazole],-0.0258
11,C[C@]12CC[C@@H](O)C[C@@H]1CC[C@@H]1[C@@H]2CC[C@]2(C)C(=O)CC[C@@H]12 [Androsterone],-1.34
12,"CNCC(O)c1ccc(O)cc1 (racemic) [(+,-)-Synephrine]",0.0655
13,O=[N+]([O-])O[C@@H]1CO[C@H]2[C@@H]1OC[C@@H]2O [Isosorbide mononitrate],0.0808
14,C[C@H](N)[C@H](O)c1ccc(O)c(O)c1 [Levonordefrin],0.0481
15,CC(C)N(CCC(C(N)=O)(c1ccccc1)c1ccccn1)C(C)C (stereo unspecified) [Disopyramide],0.0344
16,CN1[C@@H]2CC[C@H]1C[C@@H](OC(=O)[C@H](CO)c1ccccc1)C2 [Hyoscyamine (L)],0.0316
17,COc1ccc(CN2CCNCC2)c(OC)c1OC [Trimetazidine dihydrochloride],0.0806
18,C[C@]12CC[C@H]3[C@@H](CCC4=CC(=O)CC[C@@H]43)[C@@H]1CC[C@@H]2O [Nandrolone],0.02

# As a working copy, some entries already given:
row,SMILES,log
7,COc1ccc2c(c1)[C@]13CCCC[C@@H]1[C@H](C2)N(C)CC3 [Dextromethorphan hydrobromide monohydrate],0.0437
8,C=C1[C@@H]2CC[C@H]3[C@]4(C)C[C@H](O[C@@H]5O[C@H](CO)[C@@H](OS(=O)(=O)O)[C@H](OS(=O)(=O)O)[C@H]5OC(=O)CC(C)C)C[C@@H](C(=O)O)[C@H]4CC[C@]3(C2)[C@@H]1O [Atractyloside potassium salt],-0.264
9,CC(Cc1ccc(O)cc1)NCC(O)c1cc(O)cc(O)c1 (stereo unspecified) [Fenoterol hydrobromide],-0.372

# The list continues.

row,SMILES,log
1,CCC(C)C1O[C@]2(C=C[C@@H]1C)C[C@@H]1CC(C/C=C(\C)[C@@H](OC3C[C@H](OC)[C@@H](OC4C[C@H](OC)[C@@H](O)[C@H](C)O4)[C@H](C)O3)[C@@H](C)/C=C/C=C3\COC4[C@H](O)C(C)=CC(C(=O)O1)[C@]34O)O2 (stereo partly specified) [Avermectin B1a],-0.0432
2,CCCN1C[C@H](CSC)C[C@@H]2c3cccc4[nH]cc(c34)C[C@H]21 [Pergolide mesylate],0.104
3,CCC(=O)O[C@@](Cc1ccccc1)(c1ccccc1)[C@@H](C)CN(C)C [Levopropoxyphene napsylate],0.0626
4,"CC[C@@]1(O)C(=O)OCc2c1cc1n(c2=O)Cc2cc3ccccc3nc2-1 [Camptothecine (S,+)]",-1.17
5,COc1cccc(C2(O)CCCCC2CN(C)C)c1 (stereo unspecified) [Tramadol hydrochloride],0.187
6,CC(CCc1ccccc1)NC(C)C(O)c1ccc(O)cc1 (stereo unspecified) [Nylidrin],-0.05
7,CC(=O)OC1CN2CCC1CC2 (stereo unspecified) [Aceclidine Hydrochloride],-0.621
8,CN1C[C@H](C(=O)N[C@]2(C)O[C@@]3(O)[C@@H]4CCCN4C(=O)[C@H](Cc4ccccc4)N3C2=O)C[C@@H]2c3cccc4[nH]cc(c34)C[C@H]21 [Dihydroergotamine tartrate],0.166
9,C[N+]1(C)[C@@H]2CC[C@H]1C[C@@H](OC(=O)C(CO)c1ccccc1)C2 (stereo partly specified) [Methylatropine nitrate],0.202
10,C[N+](C)(C)CCCCCCCCCC[N+](C)(C)C [Decamethonium bromide],0.0732
11,c1ccc2nc(N3CCNCC3)ccc2c1 [Quipazine dimaleate salt],-0.0206
12,CCN[C@@H](C)Cc1cccc(C(F)(F)F)c1 [Dexfenfluramine hydrochloride],-0.0293
13,C[CH2][Hg][S]c1ccccc1C(=O)[O-].[Na+] [Thimerosal],-0.228
14,C[N+]1(C)CCOC(O)(c2ccc(-c3ccc(C4(O)C[N+](C)(C)CCO4)cc3)cc2)C1 (stereo unspecified) [Hemicholinium bromide],-0.352
15,C[C@]12CCC(=O)C=C1CC[C@@H]1[C@@H]2C(=O)C[C@]2(C)C(=O)CC[C@@H]12 [Adrenosterone],0.0619
16,COc1ccc(C(=O)N2CCCC2=O)cc1 [Aniracetam],-0.051
17,O=C(O)CCCc1ccc(N(CCCl)CCCl)cc1 [Chlorambucil],0.0496
18,CC[C@@H](C(N)=O)N1CCCC1=O [Levetiracetam],0.0159

# Reference: the supplement of paper PMC7024190
